Test results reported in US20230146455A1 (Yuyu Pharma, Inc., priority 2020, published 2023).
Several values for one entry are separate records, joined by “and”; a condition that tells them apart may be missing. Equal values may be shown once. Where no unit stands, none is given here, and values compare only within one read-out. Where a SMILES comes first, the peptide text is derived from it. [ ]: non-standard residue; d: D form. Hyp = O=C(O)[C@@H]1C[C@@H](O)CN1

Columns and labels:
IFN-gamma = experiment: Example 9 Luminex, LPS hPBMCs: IFN-gamma; type: cell-based, human
Method: (§1) Treatment Human PBMCs were pretreated with YY-101, YDE-011 and YDE-043 or reference compound; Xiidra® at various concentration (ranging from 1 nM to 100 uM) for 2 h before stimulation. An equal volume of 0.5% DMSO was used as a vehicle control. Then, the cells were treated with LPS at 5 ug/ml. The supernatants from treated cells were harvested at 24 h and placed in a 96 well for Luminex cytokine & chemokine profiling using a Luminex 200 multiplex assay (Luminex; R&D system, USA).
(§2) The main study arm with triplicate wells per group in a 24-well plate: • 1. Blank • 2. PBMC: 0.5% DMSO • 3. PBMC+LPS (5 ug/ml) • 4. PBMC+YY-101 100 uM • 5. PBMC+YY-101 10 uM • 6. PBMC+YY-101 1 uM • 7. PBMC+YY-101 0.1 uM • 8. PBMC+YY-101 0.01 uM • 9. PBMC+LPS (5 ug/ml)+Xiidra®100 uM • 10. PBMC+LPS (5 ug/ml)+Xiidra® 10 uM • 11. PBMC+LPS (5 ug/ml)+Xiidra® 1 uM • 12. PBMC+LPS (5 ug/ml)+Xiidra®0.1 uM • 13. PBMC+LPS (5 ug/ml)+Xiidra®0.01 uM • 14. PBMC+LPS (5 ug/ml)+Xiidra®0.001 uM • 15. PBMC+LPS (5 ug/ml)+YY-101 100 uM • 16. PBMC+LPS (5 ug/ml)+YY-101 10 uM • 17. PBMC+LPS (5 ug/ml)+YY-101 1 uM • 18. PBMC+LPS (5 ug/ml)+YY-101 0.1 uM • 19. PBMC+LPS (5 ug/ml)+YY-101 0.01 uM • 20. PBMC+LPS (5 ug/ml)+YY-101 0.001 uM • 21. PBMC+LPS (5 ug/ml)+YDE-011 100 uM • 22. PBMC+LPS (5 ug/ml)+YDE-011 10 uM • 23. PBMC+LPS (5 ug/ml)+YDE-011 1 uM • 24. PBMC+LPS (5 ug/ml)+YDE-011 0.1 uM • 25. PBMC+LPS (5 ug/ml)+YDE-011 0.01 uM • 26. PBMC+LPS (5 ug/ml)+YDE-011 0.001 uM • 27. PBMC+LPS (5 ug/ml)+YDE-043 100 uM • 28. PBMC+LPS (5 ug/ml)+YDE-043 10 uM • 29. PBMC+LPS (5 ug/ml)+YDE-043 1 uM • 30. PBMC+LPS (5 ug/ml)+YDE-043 0.1 uM • 31. PBMC+LPS (5 ug/ml)+YDE-043 0.01 uM • 32. PBMC+LPS (5 ug/ml)+YDE-043 0.001 uM
(§3) Multiplex assay was used to measure 30 cytokines and chemokines. The 1:2, 1:10 and 1:200 diluted cell supernatant and serial dilution of the standard were dispensed into a 96 well plate at 50 ul/well. Then, the pre-mixed cocktail of antibody-coated magnetic beads was dispensed at 50 ul/well and incubated at room temperature for 2 h in a horizontal orbital microplate shaker at 800±500 rpm. The beads were washed using a magnetic device to prevent loss. The biotin-antibody was dispensed in 50 ul of each well and incubated at room temperature for 1 h in a shaker at 800±500 rpm. After washing, streptavidin-PE was added at 50 ul/well and incubated at room temperature for 30 min in a shaker under the same conditions. Finally, after washing, wash buffer (100 ul/well) was added to the plate and incubated in a shaker for 2 min. The Luminex™ 200 setting were set according to the manufacturer's protocol. The data was calculated with a standard five-parameter logistic nonlinear regression analysis of the data (xPonent software 4.2, USA). The levels of cytokine/chemokine are normalized to the live cell counts (1×10^5 cells/mL) and presented as concentrations per mL (pg/mL or ng/mL).

MMP-9 = experiment: Example 9 Luminex, LPS hPBMCs: MMP-9; type: cell-based, human
Method: as §1, §2, §3

## CC(C)C[C@H](NC(=O)CNC(=O)[C@H](CC(=O)O)NC(=O)[C@H](CCC(N)=O)NC(=O)CNC(=O)[C@@H]1C[C@@H](O)CN1)C(=O)N[C@@H](C)C(=O)NCC(=O)N1CCC[C@H]1C(=O)N[C@@H](CCCCN)C(=O)O [YY-101] (H-[Hyp]GQDGLAGPK-OH; N-terminus and C-terminus assumed)
IFN-gamma; PBMC + LPS(5 ug/ml) + test article 0.001 uM, Mean
  MFI (Bead name: IFN-gamma): 646.3
IFN-gamma; PBMC + LPS(5 ug/ml) + test article 0.001 uM, single replicates
  MFI (Bead name: IFN-gamma): 619.0 and 724.0 and 596.0
IFN-gamma; PBMC + LPS(5 ug/ml) + test article 0.01 uM, Mean
  MFI (Bead name: IFN-gamma): 850.3
IFN-gamma; PBMC + LPS(5 ug/ml) + test article 0.01 uM, single replicates
  MFI (Bead name: IFN-gamma): 940.0 and 906.0 and 705.0
IFN-gamma; PBMC + LPS(5 ug/ml) + test article 0.1 uM, Mean
  MFI (Bead name: IFN-gamma): 475.5
IFN-gamma; PBMC + LPS(5 ug/ml) + test article 0.1 uM, single replicates
  MFI (Bead name: IFN-gamma): 527.0 and 408.0 and 491.5
IFN-gamma; PBMC + LPS(5 ug/ml) + test article 1 uM, Mean
  MFI (Bead name: IFN-gamma): 611.5
IFN-gamma; PBMC + LPS(5 ug/ml) + test article 1 uM, single replicates
  MFI (Bead name: IFN-gamma): 658.0 and 645.5 and 531.0
IFN-gamma; PBMC + LPS(5 ug/ml) + test article 10 uM, Mean
  MFI (Bead name: IFN-gamma): 709.3
IFN-gamma; PBMC + LPS(5 ug/ml) + test article 10 uM, single replicates
  MFI (Bead name: IFN-gamma): 827.5 and 691.0 and 609.5
IFN-gamma; PBMC + LPS(5 ug/ml) + test article 100 uM, Mean
  MFI (Bead name: IFN-gamma): 503.0
IFN-gamma; PBMC + LPS(5 ug/ml) + test article 100 uM, single replicates
  MFI (Bead name: IFN-gamma): 504.0 and 555.0 and 450.0
IFN-gamma; PBMC + test article 0.01 uM, no LPS, Mean
  MFI (Bead name: IFN-gamma): 6.5
IFN-gamma; PBMC + test article 0.01 uM, no LPS, single replicates
  MFI (Bead name: IFN-gamma): 5.0 and 8.0
IFN-gamma; PBMC + test article 0.1 uM, no LPS, Mean
  MFI (Bead name: IFN-gamma): 6.5
IFN-gamma; PBMC + test article 0.1 uM, no LPS, single replicates
  MFI (Bead name: IFN-gamma): 5.0 and 8.0
IFN-gamma; PBMC + test article 1 uM, no LPS, Mean
  MFI (Bead name: IFN-gamma): 6.0
IFN-gamma; PBMC + test article 1 uM, no LPS, single replicates
  MFI (Bead name: IFN-gamma): 5.0 and 7.0
IFN-gamma; PBMC + test article 10 uM, no LPS, Mean
  MFI (Bead name: IFN-gamma): 12.3
IFN-gamma; PBMC + test article 10 uM, no LPS, single replicates
  MFI (Bead name: IFN-gamma): 15.5 and 9.0
IFN-gamma; PBMC + test article 100 uM, no LPS, Mean
  MFI (Bead name: IFN-gamma): 9.5
IFN-gamma; PBMC + test article 100 uM, no LPS, single replicates
  MFI (Bead name: IFN-gamma): 12.0 and 7.0
MMP-9; PBMC + 0.01 uM, no LPS, Mean
  MMP-9 MFI: 1510.3
MMP-9; PBMC + 0.01 uM, no LPS, single replicates
  MMP-9 MFI: 1408.5 and 1612.0
MMP-9; PBMC + 0.1 uM, no LPS, Mean
  MMP-9 MFI: 1525.5
MMP-9; PBMC + 0.1 uM, no LPS, single replicates
  MMP-9 MFI: 1206.5 and 1844.5
MMP-9; PBMC + 1 uM, no LPS, Mean
  MMP-9 MFI: 1525.0
MMP-9; PBMC + 1 uM, no LPS, single replicates
  MMP-9 MFI: 1451.5 and 1598.5
MMP-9; PBMC + 10 uM, no LPS, Mean
  MMP-9 MFI: 2205.8
MMP-9; PBMC + 10 uM, no LPS, single replicates
  MMP-9 MFI: 2812.5 and 1599.0
MMP-9; PBMC + 100 uM, no LPS, Mean
  MMP-9 MFI: 1161.3
MMP-9; PBMC + 100 uM, no LPS, single replicates
  MMP-9 MFI: 1309.5 and 1013.0
MMP-9; PBMC + LPS(5 ug/ml) + 0.001 uM, Mean
  MMP-9 MFI: 41.0
MMP-9; PBMC + LPS(5 ug/ml) + 0.001 uM, single replicates
  MMP-9 MFI: 36.0 and 36.5 and 50.5
MMP-9; PBMC + LPS(5 ug/ml) + 0.01 uM, Mean
  MMP-9 MFI: 35.8
MMP-9; PBMC + LPS(5 ug/ml) + 0.01 uM, single replicates
  MMP-9 MFI: 37.5 and 36.5 and 33.5
MMP-9; PBMC + LPS(5 ug/ml) + 0.1 uM, Mean
  MMP-9 MFI: 30.3
MMP-9; PBMC + LPS(5 ug/ml) + 0.1 uM, single replicates
  MMP-9 MFI: 28.5 and 31.0 and 31.5
MMP-9; PBMC + LPS(5 ug/ml) + 1 uM, Mean
  MMP-9 MFI: 38.5
MMP-9; PBMC + LPS(5 ug/ml) + 1 uM, single replicates
  MMP-9 MFI: 36.5 and 37.5 and 41.5
MMP-9; PBMC + LPS(5 ug/ml) + 10 uM, Mean
  MMP-9 MFI: 36.8
MMP-9; PBMC + LPS(5 ug/ml) + 10 uM, single replicates
  MMP-9 MFI: 37.5 and 38.5 and 34.5
MMP-9; PBMC + LPS(5 ug/ml) + 100 uM, Mean
  MMP-9 MFI: 27.7
MMP-9; PBMC + LPS(5 ug/ml) + 100 uM, single replicates
  MMP-9 MFI: 28.0 and 28.5 and 26.5
